Results from one PubChem assay

Data taken from PubChem BioAssay AID1347119, deposited by NCATS (2019).

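MG-63 osteosarcoma cells resistant to 6-thioguanine, exposed to compounds for 48 hours; viability read as the luminescent signal from metabolically active cells.
Each compound ran as a dilution series, mostly reaching about 45.9 µM.
The value is the fitted potency (AC50, nM) for the cell-killing curve; lower values mean a more potent compound.
Calls follow curve shape; these rows are inconclusive, covering poorly fitted, partial or top-dose-only killing curves, a rising curve, and full killing curves presumably too small in effect.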

Values are in nM.
All entries here are filed as inconclusive.
Only part of the assay is shown, chiefly results filed as inconclusive.
A potency from a partial, single-point or poor curve is only a rough figure.
Some entries filed as inconclusive have a full curve.
The first word of each remark tells which way the curve ran; it can be opposite to the aim of the assay.

SMILES	potency (nM)	remark
OCCCNc1cc(-c2ccnc(Nc3cccc(Cl)c3)n2)ccn1	293.3	cytotoxic, full curve, poor fit
O=C(Nc1cccc(Br)c1)c1cccc(S(=O)(=O)N2CCCCCC2)c1	36924	cytotoxic, single point
CC(C)(C)c1[nH]cnc1C=c1[nH]c(=O)c(=Cc2ccccc2)[nH]c1=O	16	cytotoxic, full curve, poor fit
CC(=O)N1CCN(c2ccc(OCc3nn(C)c(C)c3-c3cccc4c(CCCOc5cc(C)c(Cl)c(C)c5)c(C(=O)O)n(Cc5cccnc5)c34)cc2)CC1	36924	cytotoxic, single point
Clc1ccc(C(c2ccccc2Cl)C(Cl)Cl)cc1 (centres unmarked)	36924	cytotoxic, single point
C[C@H]1C[C@@H]2[C@H]([C@@H](O)C[C@@]3(C)[C@H]2CC[C@]3(O)C(=O)CO)[C@@]2(C)C=CC(=O)C=C12	36924	cytotoxic, single point
Cc1nc(Nc2n[nH]c3c2CN(C(=O)N[C@H](CN(C)C)c2ccccc2)C3(C)C)c2sccc2n1	65.7	cytotoxic, full curve, poor fit
COC(=O)C1C2CC3c4[nH]c5cc(OC)ccc5c4CCN3CC2CC(OC(=O)c2cc(OC)c(OC)c(OC)c2)C1OC (centres unmarked)	3692	cytotoxic, partial curve, poor fit
O=C(O)c1ccc(-c2cc3cccnc3c(-c3ccc4nonc4c3)n2)cc1	2933	cytotoxic, single point
O=C(NCc1ccncc1)C12C[C@H]3C[C@@H](C1)CC(c1ccc(Cl)cc1)(C3)C2	26140	cytotoxic, single point
Cc1ccc2c(c1)C(=O)[C@]1(O)CCN(c3ccccc3)C1=N2	14700	cytotoxic, partial curve, poor fit
Cc1nc(Nc2ncc(C(=O)Nc3c(C)cccc3Cl)s2)cc(N2CCN(CCO)CC2)n1	2.1	cytotoxic, full curve, poor fit
CC=C(C)C(=O)O[C@H]1C(C)=C[C@]23C(=O)[C@@H](C=C(CO)[C@@H](O)[C@]12O)[C@H]1[C@@H](C[C@H]3C)C1(C)C	16.5	cytotoxic, full curve, poor fit
O=c1[nH]c2ccc(Cl)cc2c(N[C@@H]2CN3CCC2CC3)c1-c1nc2ccccc2[nH]1	1041	cytotoxic, full curve, poor fit
COc1ccc(C(=O)CC(=O)c2ccc(C(C)(C)C)cc2)cc1	18506	cytotoxic, single point
CNC1CCC(N(Cc2cccc(-c3ccncc3)c2)C(=O)c2sc3c(F)ccc(F)c3c2Cl)CC1 (centres unmarked)	36924	cytotoxic, single point
COc1ccc2c(Oc3ccc(NC(=O)c4c(C)n(CC(C)(C)O)n(-c5ccccc5)c4=O)cc3F)ccnc2c1	3291	cytotoxic, partial curve, poor fit
O=C1NC(=O)C(=Cc2ccc3c(c2)OC(F)(F)O3)S1	36924	cytotoxic, single point
COc1cc([C@@H]2c3cc4c(cc3[C@@H](O[C@@H]3O[C@@H]5CO[C@@H](c6cccs6)O[C@@H]5[C@H](O)[C@@H]3O)[C@H]3COC(=O)[C@H]23)OCO4)cc(OC)c1O	585.2	cytotoxic, full curve, poor fit
CCS(=O)(=O)c1cccc(-c2cc(C(=O)NC3CCN(C)CC3)c(C)c3[nH]c4ncc(C)cc4c23)c1	1310	cytotoxic, full curve, poor fit
Cn1cnc2c(F)c(Nc3ccc(Br)cc3Cl)c(C(=O)NOCCO)cc21	5852	cytotoxic, partial curve
CC[C@H](NC(=O)[C@H](C)NC)C(=O)N1C[C@@H](O)C[C@H]1Cc1c(-c2[nH]c3cc(F)ccc3c2C[C@H]2C[C@H](O)CN2C(=O)[C@H](CC)NC(=O)[C@H](C)NC)[nH]c2cc(F)ccc12	3291	cytotoxic, full curve, poor fit
CN(C)c1ccc(O)c2c1C[C@H]1C[C@H]3[C@H](N(C)C)C(=O)C(C(N)=O)=C(O)[C@@]3(O)C(=O)C1=C2O	2.9	rising, full curve